These are yes or no findings as the source states them, for the method shown. Binding seen in cells or lysates may run through a third protein. Here binding means that the protein was enriched with, or labelled near, the bait; the list need not be complete.

Protein sequences, listed by entry. Tags and fused reporters are not part of them. Lines headed by an entry give the natural chain unless they say otherwise; changes in a name come on top.
UniProt Q8S307: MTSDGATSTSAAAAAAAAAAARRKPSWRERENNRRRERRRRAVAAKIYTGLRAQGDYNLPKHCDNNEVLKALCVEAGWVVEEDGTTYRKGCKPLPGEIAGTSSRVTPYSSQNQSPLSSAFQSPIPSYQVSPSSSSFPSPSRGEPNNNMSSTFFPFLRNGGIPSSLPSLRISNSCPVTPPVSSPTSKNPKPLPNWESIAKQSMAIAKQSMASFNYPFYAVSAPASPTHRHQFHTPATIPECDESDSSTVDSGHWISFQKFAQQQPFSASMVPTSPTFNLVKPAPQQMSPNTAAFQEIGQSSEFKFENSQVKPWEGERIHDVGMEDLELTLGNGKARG
UniProt Q93YR3: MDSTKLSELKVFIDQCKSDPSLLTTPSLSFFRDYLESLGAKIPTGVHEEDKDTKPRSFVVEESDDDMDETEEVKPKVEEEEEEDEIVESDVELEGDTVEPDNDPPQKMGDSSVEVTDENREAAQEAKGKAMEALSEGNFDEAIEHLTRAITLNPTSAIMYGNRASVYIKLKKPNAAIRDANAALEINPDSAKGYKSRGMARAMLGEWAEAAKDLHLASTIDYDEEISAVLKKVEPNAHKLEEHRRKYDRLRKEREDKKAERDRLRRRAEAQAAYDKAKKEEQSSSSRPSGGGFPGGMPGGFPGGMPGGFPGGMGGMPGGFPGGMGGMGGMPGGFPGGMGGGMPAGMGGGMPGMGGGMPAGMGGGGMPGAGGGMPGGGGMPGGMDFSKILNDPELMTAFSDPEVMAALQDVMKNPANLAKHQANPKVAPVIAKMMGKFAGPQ
UniProt P22953: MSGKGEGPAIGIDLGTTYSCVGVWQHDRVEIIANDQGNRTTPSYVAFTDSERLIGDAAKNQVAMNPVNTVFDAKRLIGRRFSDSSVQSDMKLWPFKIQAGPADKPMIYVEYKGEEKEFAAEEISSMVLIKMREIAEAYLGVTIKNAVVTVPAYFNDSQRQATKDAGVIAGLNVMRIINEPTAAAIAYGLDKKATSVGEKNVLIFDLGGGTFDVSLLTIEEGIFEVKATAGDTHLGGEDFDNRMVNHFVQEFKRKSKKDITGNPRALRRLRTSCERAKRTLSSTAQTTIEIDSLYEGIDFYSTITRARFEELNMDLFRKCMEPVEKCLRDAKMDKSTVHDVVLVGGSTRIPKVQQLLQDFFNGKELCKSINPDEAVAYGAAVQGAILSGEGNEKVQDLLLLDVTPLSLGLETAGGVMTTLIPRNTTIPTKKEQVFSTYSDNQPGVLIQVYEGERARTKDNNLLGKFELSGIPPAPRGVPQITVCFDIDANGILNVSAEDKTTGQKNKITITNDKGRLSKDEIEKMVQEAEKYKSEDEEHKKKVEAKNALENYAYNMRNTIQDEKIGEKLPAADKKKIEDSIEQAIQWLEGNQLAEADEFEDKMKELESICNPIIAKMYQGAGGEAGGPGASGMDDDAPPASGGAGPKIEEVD
UniProt P22954: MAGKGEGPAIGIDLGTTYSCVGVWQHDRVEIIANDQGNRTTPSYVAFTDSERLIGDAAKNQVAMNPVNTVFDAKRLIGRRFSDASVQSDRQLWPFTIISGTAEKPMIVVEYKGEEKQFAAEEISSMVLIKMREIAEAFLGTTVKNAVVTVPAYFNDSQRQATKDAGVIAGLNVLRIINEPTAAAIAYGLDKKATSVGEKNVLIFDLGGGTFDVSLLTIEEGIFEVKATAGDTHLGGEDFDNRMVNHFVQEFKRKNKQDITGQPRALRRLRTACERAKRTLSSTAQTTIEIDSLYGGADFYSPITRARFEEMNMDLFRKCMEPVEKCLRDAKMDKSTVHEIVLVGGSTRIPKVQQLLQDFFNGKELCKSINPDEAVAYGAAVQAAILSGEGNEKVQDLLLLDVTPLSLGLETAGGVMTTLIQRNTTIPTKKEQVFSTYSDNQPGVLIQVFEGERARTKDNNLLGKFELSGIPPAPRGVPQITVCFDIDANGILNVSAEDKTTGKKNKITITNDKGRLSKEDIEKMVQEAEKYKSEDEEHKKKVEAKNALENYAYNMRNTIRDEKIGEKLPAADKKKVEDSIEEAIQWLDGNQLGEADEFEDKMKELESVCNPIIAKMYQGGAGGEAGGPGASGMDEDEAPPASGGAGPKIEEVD
UniProt O23487: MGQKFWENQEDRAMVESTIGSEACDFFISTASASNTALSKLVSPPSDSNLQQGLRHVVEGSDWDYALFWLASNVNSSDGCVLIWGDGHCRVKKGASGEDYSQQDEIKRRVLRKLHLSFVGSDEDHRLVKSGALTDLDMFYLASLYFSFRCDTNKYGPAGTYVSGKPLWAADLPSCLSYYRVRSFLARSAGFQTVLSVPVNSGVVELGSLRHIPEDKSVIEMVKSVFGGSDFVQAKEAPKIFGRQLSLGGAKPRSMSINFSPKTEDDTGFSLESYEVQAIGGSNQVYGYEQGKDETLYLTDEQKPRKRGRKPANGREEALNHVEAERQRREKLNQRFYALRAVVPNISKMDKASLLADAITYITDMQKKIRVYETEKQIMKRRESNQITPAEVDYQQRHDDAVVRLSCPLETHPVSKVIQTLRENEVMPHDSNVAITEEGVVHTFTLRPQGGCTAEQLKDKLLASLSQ
UniProt F4JQE2: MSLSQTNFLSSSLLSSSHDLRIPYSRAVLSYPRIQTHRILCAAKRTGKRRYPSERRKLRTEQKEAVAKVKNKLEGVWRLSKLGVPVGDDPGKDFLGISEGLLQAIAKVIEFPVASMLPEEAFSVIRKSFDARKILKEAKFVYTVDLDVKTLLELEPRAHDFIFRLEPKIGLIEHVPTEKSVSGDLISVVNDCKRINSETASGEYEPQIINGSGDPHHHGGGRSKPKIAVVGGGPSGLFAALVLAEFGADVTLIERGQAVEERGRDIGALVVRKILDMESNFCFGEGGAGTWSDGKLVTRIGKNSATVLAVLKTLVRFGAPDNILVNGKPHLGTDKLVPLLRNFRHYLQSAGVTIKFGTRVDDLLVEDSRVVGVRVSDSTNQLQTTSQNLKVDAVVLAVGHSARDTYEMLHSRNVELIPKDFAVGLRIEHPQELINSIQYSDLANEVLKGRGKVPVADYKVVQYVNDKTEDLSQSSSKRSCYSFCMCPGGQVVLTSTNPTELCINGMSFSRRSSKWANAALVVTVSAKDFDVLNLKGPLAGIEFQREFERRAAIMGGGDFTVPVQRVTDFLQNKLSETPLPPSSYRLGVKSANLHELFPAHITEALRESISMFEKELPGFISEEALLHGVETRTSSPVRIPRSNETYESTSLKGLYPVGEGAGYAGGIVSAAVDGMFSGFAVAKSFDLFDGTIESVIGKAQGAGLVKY
UniProt F4JZZ1: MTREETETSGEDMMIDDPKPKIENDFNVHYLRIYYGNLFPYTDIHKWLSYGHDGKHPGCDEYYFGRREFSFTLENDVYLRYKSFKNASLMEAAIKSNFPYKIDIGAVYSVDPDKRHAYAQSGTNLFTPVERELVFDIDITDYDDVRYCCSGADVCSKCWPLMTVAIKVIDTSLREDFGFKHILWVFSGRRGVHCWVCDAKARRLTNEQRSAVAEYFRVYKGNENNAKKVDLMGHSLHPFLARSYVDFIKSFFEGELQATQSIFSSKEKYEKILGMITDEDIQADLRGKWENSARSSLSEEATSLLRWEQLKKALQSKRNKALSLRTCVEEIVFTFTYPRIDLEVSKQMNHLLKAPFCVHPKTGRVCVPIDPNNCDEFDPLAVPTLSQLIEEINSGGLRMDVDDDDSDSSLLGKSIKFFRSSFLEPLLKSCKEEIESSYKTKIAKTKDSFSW
UniProt Q8W234: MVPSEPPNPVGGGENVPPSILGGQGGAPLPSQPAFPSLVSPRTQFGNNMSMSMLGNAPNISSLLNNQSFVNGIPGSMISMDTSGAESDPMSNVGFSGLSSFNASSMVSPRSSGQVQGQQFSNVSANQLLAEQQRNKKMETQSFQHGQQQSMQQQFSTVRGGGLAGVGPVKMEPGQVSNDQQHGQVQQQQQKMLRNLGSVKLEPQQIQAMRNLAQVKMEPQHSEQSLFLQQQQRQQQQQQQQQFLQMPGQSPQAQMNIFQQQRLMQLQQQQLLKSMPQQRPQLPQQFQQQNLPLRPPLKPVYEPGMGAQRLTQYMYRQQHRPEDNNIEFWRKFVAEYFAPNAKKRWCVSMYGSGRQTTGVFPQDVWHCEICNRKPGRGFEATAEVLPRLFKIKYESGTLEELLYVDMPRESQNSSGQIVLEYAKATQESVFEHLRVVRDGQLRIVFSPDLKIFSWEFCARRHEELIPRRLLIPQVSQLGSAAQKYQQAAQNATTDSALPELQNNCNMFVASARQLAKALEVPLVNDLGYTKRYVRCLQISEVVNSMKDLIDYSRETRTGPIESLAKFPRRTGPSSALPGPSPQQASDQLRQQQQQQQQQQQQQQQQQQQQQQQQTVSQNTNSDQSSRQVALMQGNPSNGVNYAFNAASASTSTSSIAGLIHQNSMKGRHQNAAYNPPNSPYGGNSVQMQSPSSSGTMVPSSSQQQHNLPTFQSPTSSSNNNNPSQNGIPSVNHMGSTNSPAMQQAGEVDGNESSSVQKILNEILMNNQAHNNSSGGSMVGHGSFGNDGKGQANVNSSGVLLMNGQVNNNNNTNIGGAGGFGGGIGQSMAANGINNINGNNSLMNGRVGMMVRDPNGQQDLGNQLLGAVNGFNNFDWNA
UniProt P25071: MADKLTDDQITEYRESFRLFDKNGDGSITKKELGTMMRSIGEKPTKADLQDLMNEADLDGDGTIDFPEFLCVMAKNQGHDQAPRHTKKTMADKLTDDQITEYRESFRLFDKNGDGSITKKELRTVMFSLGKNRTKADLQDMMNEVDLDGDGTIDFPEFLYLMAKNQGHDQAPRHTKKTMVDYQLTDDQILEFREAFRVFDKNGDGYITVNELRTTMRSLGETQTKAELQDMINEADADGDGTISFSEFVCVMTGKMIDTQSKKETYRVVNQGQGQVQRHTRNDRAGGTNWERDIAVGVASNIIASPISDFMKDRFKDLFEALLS
UniProt Q94KE2: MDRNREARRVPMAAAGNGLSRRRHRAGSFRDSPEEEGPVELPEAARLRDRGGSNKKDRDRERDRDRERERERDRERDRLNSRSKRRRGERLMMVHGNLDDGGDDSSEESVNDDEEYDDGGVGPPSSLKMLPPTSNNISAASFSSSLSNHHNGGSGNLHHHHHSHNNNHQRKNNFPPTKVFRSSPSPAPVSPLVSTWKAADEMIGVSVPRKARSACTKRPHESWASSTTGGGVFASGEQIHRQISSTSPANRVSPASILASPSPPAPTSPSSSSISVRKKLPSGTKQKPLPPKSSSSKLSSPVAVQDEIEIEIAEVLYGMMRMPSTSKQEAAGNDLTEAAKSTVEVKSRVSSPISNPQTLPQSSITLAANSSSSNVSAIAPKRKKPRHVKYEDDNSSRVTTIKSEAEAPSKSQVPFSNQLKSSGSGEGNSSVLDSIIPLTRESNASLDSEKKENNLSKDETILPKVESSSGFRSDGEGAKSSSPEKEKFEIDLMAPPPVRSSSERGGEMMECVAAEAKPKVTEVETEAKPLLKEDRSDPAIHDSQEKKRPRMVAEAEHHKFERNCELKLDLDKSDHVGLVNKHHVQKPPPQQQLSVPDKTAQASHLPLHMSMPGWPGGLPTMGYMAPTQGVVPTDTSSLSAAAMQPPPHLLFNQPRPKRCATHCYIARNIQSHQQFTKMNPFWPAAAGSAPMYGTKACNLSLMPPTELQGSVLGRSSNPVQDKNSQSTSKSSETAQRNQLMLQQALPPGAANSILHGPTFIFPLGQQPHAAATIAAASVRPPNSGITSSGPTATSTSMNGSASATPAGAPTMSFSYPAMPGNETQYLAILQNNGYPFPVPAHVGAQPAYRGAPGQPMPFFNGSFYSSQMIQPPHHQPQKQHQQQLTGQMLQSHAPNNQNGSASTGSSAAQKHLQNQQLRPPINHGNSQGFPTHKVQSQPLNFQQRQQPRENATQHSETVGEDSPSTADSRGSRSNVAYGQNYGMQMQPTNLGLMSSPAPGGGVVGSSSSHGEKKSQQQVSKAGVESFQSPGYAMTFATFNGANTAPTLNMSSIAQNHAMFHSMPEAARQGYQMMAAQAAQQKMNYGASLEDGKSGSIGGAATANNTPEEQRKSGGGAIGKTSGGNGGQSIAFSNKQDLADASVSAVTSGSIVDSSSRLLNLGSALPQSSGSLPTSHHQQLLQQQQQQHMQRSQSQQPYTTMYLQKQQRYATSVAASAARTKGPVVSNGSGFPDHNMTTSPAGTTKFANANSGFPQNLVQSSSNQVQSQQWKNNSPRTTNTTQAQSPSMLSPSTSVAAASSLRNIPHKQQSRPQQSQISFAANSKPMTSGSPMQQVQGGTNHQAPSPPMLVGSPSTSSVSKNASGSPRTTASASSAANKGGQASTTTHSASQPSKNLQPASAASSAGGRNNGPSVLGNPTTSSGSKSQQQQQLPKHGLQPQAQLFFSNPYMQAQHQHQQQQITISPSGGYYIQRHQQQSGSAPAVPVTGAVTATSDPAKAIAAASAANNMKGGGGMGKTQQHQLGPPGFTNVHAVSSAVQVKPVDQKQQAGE

The labels stand for the following.
B1: P23-1 (protein, UniProt Q8L7U4 1-241)
chain: MSRHPEVKWAETTEKIFLTVVLADTKDTKVNLDPEGVFDFSAKVGPENHVYELKLELADKVNVEESKINIGERSIFCIIEKAEPERWNKLLRVKKPPHYVKVDWDKWVDEDDEGSAGAADMDMAGMEGMGGMGGMGGMGGMGGMGGMGGMGGMEGMDFSKLMGGMGGMGGMGGLEGLGGMGGMGGMGGMGGMGGMEEFEDSDDEEETAKSGDKKDDAVKEEGLATEKAPAAEETTSVKEDK
B2: J3 (protein, UniProt Q94AW8 1-420)
chain: MFGRGPSKKSDNTKFYEILGVPKSASPEDLKKAYKKAAIKNHPDKGGDPEKFKELAQAYEVLSDPEKREIYDQYGEDALKEGMGGGGGGHDPFDIFSSFFGGGPFGGNTSRQRRQRRGEDVVHPLKVSLEDVYLGTMKKLSLSRNALCSKCNGKGSKSGASLKCGGCQGSGMKVSIRQLGPGMIQQMQHACNECKGTGETINDRDRCPQCKGDKVIPEKKVLEVNVEKGMQHSQKITFEGQADEAPDTVTGDIVFVLQQKEHPKFKRKGEDLFVEHTLSLTEALCGFQFVLTHLDGRSLLIKSNPGEVVKPDSYKAISDEGMPIYQRPFMKGKLYIHFTVEFPDSLSPDQTKALEAVLPKPSTAQLSDMEIDECEETTLHDVNIEDEMRRKAQAQREAYDDDDEDDDHPGGAQRVQCAQQ
B3: SOS2 (protein, UniProt Q9LDI3 1-446)
chain: MTKKMRRVGKYEVGRTIGEGTFAKVKFARNTDTGDNVAIKIMAKSTILKNRMVDQIKREISIMKIVRHPNIVRLYEVLASPSKIYIVLEFVTGGELFDRIVHKGRLEESESRKYFQQLVDAVAHCHCKGVYHRDLKPENLLLDTNGNLKVSDFGLSALPQEGVELLRTTCGTPNYVAPEVLSGQGYDGSAADIWSCGVILFVILAGYLPFSETDLPGLYRKINAAEFSCPPWFSAEVKFLIHRILDPNPKTRIQIQGIKKDPWFRLNYVPIRAREEEEVNLDDIRAVFDGIEGSYVAENVERNDEGPLMMNAFEMITLSQGLNLSALFDRRQDFVKRQTRFVSRREPSEIIANIEAVANSMGFKSHTRNFKTRLEGLSSIKAGQLAVVIEIYEVAPSLFMVDVRKAAGETLEYHKFYKKLCSKLENIIWRATEGIPKSEILRTITF
B4: AT5G56460 (putative protein kinase) (protein, UniProt Q9FM85 1-408)
chain: MGNCWCRFEPLNHRVSANAKSESPKEQSPTVEDKHIKEVQKLPSNPKEVEDLRRDSAANPLIAFTYEELKNITSNFRQDRVLGGGGFGSVYKGFIKEDLGDQEVPEPLPVAVKVHDGDNSFQGHREWLAEVIFLGQLSHPNLVKLIGYCCEDNHRVLIYEYMARGSVENNLFSRVLLPLSWAIRMKIAFGAAKGLAFLHEAKKPVIYRDFKTSNILLDMDYNAKLSDFGLAKDGPVGDKSHVSTRIMGTYGYAAPEYIMTGHLTPGSDVYSFGVVLLELLTGRKSLDKSRPTREQNLIDWALPLLKEKKKVLNIVDPKMNCEYPVKAVQKAAMLAYHCLNRNPKARPLMRDIVDSLEPLQATEEEALLVPPVQKAVITIIDEMPKNGLKKVEELKKVEEVKKVIEDAC
B5: LEUNIG (protein, UniProt Q9FUY2 1-931)
chain: MSQTNWEADKMLDVYIHDYLVKRDLKATAQAFQAEGKVSSDPVAIDAPGGFLFEWWSVFWDIFIARTNEKHSEVAASYIETQMIKAREQQLQQSQHPQVSQQQQQQQQQQIQMQQLLLQRAQQQQQQQQQQHHHHQQQQQQQQQQQQQQQQQQQQHQNQPPSQQQQQQSTPQHQQQPTPQQQPQRRDGSHLANGSANGLVGNNSEPVMRQNPGSGSSLASKAYEERVKMPTQRESLDEAAMKRFGDNVGQLLDPSHASILKSAAASGQPAGQVLHSTSGGMSPQVQTRNQQLPGSAVDIKSEINPVLTPRTAVPEGSLIGIPGSNQGSNNLTLKGWPLTGFDQLRSGLLQQQKPFMQSQSFHQLNMLTPQHQQQLMLAQQNLNSQSVSEENRRLKMLLNNRSMTLGKDGLGSSVGDVLPNVGSSLQPGGSLLPRGDTDMLLKLKMALLQQQQQNQQQGGGNPPQPQPQPQPLNQLALTNPQPQSSNHSIHQQEKLGGGGSITMDGSISNSFRGNEQVLKNQSGRKRKQPVSSSGPANSSGTANTAGPSPSSAPSTPSTHTPGDVISMPNLPHSGGSSKSMMMFGTEGTGTLTSPSNQLADMDRFVEDGSLDDNVESFLSQEDGDQRDAVTRCMDVSKGFTFTEVNSVRASTTKVTCCHFSSDGKMLASAGHDKKAVLWYTDTMKPKTTLEEHTAMITDIRFSPSQLRLATSSFDKTVRVWDADNKGYSLRTFMGHSSMVTSLDFHPIKDDLICSCDNDNEIRYWSINNGSCTRVYKGGSTQIRFQPRVGKYLAASSANLVNVLDVETQAIRHSLQGHANPINSVCWDPSGDFLASVSEDMVKVWTLGTGSEGECVHELSCNGNKFQSCVFHPAYPSLLVIGCYQSLELWNMSENKTMTLPAHEGLITSLAVSTATGLVASASHDKLVKLWK
B6: HOP2 (protein, UniProt Q5XEP2 1-571)
chain: MADEAKAKGNAAFSSGDFNSAVNHFTDAINLTPTNHVLFSNRSAAHASLNHYDEALSDAKKTVELKPDWGKGYSRLGAAHLGLNQFDEAVEAYSKGLEIDPSNEGLKSGLADAKASASRSRASAPNPFGDAFQGPEMWSKLTADPSTRGLLKQPDFVNMMKEIQRNPSNLNLYLQDQRVMQALGVLLNIQIRTQQAGDDMEIGEEEMAVPSRKEPEVEKKRKPEPEPEPEPEFGEEKQKKLKAQKEKELGNAAYKKKDFETAIQHYSTAMEIDDEDISYITNRAAVHLEMGKYDECIKDCDKAVERGRELRSDYKMVAKALTRKGTALGKMAKVSKDYEPVIQTYQKALTEHRNPETLKRLNEAERAKKELEQQEYYDPNIGDEEREKGNDFFKEQKYPDAVRHYTEAIKRNPKDPRAYSNRAACYTKLGAMPEGLKDAEKCIELDPTFLKGYSRKGAVQFFMKEYDNAMETYQKGLEHDPNNQELLDGVKRCVQQINKANRGDLTPEELKERQAKGMQDPEIQNILTDPVMRQVLSDLQENPAAAQKHMQNPMIMNKIQKLISSGIVQMK

In the experiment the target is T1, FAMA-TbID-Venus (FAMApro::FAMA-TbID-mVenus in fama-1) (Arabidopsis thaliana) (UniProt Q56YJ8).
T1 sequence: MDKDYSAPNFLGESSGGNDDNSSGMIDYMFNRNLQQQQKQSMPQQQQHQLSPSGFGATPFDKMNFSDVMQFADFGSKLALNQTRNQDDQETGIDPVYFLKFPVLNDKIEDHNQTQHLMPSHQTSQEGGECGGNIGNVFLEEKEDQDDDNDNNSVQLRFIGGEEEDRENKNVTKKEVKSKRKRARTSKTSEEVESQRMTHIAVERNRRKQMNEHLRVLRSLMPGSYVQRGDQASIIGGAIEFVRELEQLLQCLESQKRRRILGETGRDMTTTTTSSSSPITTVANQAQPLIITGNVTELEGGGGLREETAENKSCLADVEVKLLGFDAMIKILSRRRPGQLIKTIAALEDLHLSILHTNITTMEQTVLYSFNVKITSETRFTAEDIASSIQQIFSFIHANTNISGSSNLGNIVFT
Description: proximity labelling; FAMApro::FAMA-TbID-Venus in 5-day-old Arabidopsis seedlings, 50 uM biotin for 0, 0.5 or 3 h; biotinylated proteins purified on streptavidin beads, on-bead digest, LC-MS/MS with label-free quantification; filtered for enrichment against WT, nuclear TbID (FAMAnucTbID) and untreated samples; three biological replicates.
As for AIB (from UniProt Q9ZPY8 1-566), the binding result is on record as “binds”.
AT1G30070 (undescribed protein): the binding result was “binds”.
To AT1G50570 (undescribed protein) belongs “binds”; to “AT4G25290 (undescribed protein) (from UniProt F4JSJ6)”, “binds”; to “AT5G15680 (undescribed protein) (from UniProt F4KB73)”, “binds”.
Regarding “AT5G53330 (undescribed protein) (from UniProt F4KJ40)”, the binding entry is “binds”.
Then BZR1 (from UniProt Q8S307 1-336), with “binds”; and FKBP62 (from UniProt Q38931 1-551), with “binds”.
For the molecule HIP1 (from UniProt Q93YR3), the binding result is listed as “binds”.
To HSP70-1 (from UniProt P22953 1-651) belongs “binds”.
To HSP70-2 (from UniProt P22954 1-653) belongs “binds”; to HSP70-3 (from UniProt O65719 1-649), “binds”; to IAP1, “binds”.
With JAM3 (from UniProt O23487), the binding result was “binds”.
Then NDH48 (from UniProt Q9S9N6 45-461), with “binds”; and OXS2 (from UniProt P93755), with “binds”.
Then PAL2 (from UniProt P45724 1-717), with “binds”; and PAT1, with “binds”.
To PDE327 (from UniProt F4JQE2) belongs “binds”; to POLA3 (from UniProt F4JZZ1), “binds”; to SEUSS (from UniProt Q8W234 1-877), “binds”.
As to TCH3 (from UniProt P25071 1-324), the binding entry was “binds”.
To TIC (from UniProt Q94KE2 1-1550) belongs “binds”; to B1, “binds”.
To B2 belongs “binds”.
Turning to B3, the binding result is “binds”.
Turning to B4, the binding result is “binds”.
Then B5, with “binds”; and B6, with “binds”.

For the origin of these results see publication PMC6791687.
